Values from PubChem BioAssay AID504786 (Drosophila RNAi Screening Center, 2011).
Aim: 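Knock-downs reducing HIF reporter induction by the iron chelator DFO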 (primary screen). Cells: Drosophila S2 cells with a stable HIF luciferase reporter. Reagent: long dsRNA against Drosophila genes, about 0.2 µg dsRNA per well of a 384-well plate. Timing: three days of knock-down, then 20 h of DFO before reading. Challenge: desferrioxamine (DFO) at 100 µM, an iron chelator that mimics hypoxia, for 20 h. Read-out: 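Firefly luciferase driven by the mouse ldh-a hypoxia-response element, measured after 20 h of 100 µM DFO; z-scores per plate, higher means more signal lost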. Reading the numbers: z-score: higher = stronger loss of HIF reporter signal.
The deposit covers about 21,000 reagents; shown is a random part of those with a known target gene and a result. 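Primary screen; positive scores mean lost reporter signal, so the sign may be inverted from the usual convention.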 The numbers tell different reagents against one gene apart. Reagent sequences are not shown.

target,dsRNA no.,"z-score, replicate 1","z-score, replicate 2","z-score, replicate 3","z-score, replicate 4"
CG31544 (retired record),1,-0.4,0.1,,
CG14125,1,-0.2,0,,
Lamtor3,1,0.2,0.3,,
CG14491,1,-0.3,0,,
bdg,1,-0.2,-0.2,,
nwk,1,-0.2,-0.2,,
CG14654 (retired record),1,-0.5,-0.6,,
Or67c,1,-0.3,-0.4,,
CG6688,1,-0.3,-0.5,,
Hibch,1,0.9,0.5,,
CG31673,1,-0.2,0.1,,
CG15353,1,-0.2,0.1,-0.3,-0.3

A run of entries of the results above:
target,dsRNA no.,"z-score, replicate 1","z-score, replicate 2","z-score, replicate 3","z-score, replicate 4"
Lamtor3,1,0.2,0.3,,
CG14491,1,-0.3,0,,
bdg,1,-0.2,-0.2,,

The list goes on:
target,dsRNA no.,"z-score, replicate 1","z-score, replicate 2","z-score, replicate 3","z-score, replicate 4"
CG11997,1,-0.1,0.2,,
Pka-R2,1,-0.2,0.1,,
Drsl5,1,-0.3,-0.3,,
Osi2,1,-0.5,-0.6,,
nmo,1,0.3,0.7,,
nmo,2,-0.1,-0.1,,
CG30203,1,0.1,-0.1,,
dx,1,-0.2,-0.4,,
MED26,1,-0.4,0,,
MED26,2,-0.4,0.4,,
MED26,3,-0.4,-1.1,,
CG11961,1,-0.3,-0.4,,
CG15642,1,-0.3,-0.3,,
CG11634,1,-0.2,-0.5,,
Axn,1,0.1,0,-0.4,0.9
CG1309,1,-0.1,-0.2,,
CG42650,1,-0.2,-0.3,,
CG32830 (retired record),1,-0.9,-0.4,,
PIG-K,1,-0.3,-0.4,,
5-HT7,1,-0.3,-0.1,,
CG32537,1,-0.4,-0.4,,
FucTB,1,-0.2,-0.2,,
